# Primary screen of a compound library

The chains behind the UniProt entries cited, without tags or fusion partners. Residues count along the entry.
UniProt I6X8D2, whole entry: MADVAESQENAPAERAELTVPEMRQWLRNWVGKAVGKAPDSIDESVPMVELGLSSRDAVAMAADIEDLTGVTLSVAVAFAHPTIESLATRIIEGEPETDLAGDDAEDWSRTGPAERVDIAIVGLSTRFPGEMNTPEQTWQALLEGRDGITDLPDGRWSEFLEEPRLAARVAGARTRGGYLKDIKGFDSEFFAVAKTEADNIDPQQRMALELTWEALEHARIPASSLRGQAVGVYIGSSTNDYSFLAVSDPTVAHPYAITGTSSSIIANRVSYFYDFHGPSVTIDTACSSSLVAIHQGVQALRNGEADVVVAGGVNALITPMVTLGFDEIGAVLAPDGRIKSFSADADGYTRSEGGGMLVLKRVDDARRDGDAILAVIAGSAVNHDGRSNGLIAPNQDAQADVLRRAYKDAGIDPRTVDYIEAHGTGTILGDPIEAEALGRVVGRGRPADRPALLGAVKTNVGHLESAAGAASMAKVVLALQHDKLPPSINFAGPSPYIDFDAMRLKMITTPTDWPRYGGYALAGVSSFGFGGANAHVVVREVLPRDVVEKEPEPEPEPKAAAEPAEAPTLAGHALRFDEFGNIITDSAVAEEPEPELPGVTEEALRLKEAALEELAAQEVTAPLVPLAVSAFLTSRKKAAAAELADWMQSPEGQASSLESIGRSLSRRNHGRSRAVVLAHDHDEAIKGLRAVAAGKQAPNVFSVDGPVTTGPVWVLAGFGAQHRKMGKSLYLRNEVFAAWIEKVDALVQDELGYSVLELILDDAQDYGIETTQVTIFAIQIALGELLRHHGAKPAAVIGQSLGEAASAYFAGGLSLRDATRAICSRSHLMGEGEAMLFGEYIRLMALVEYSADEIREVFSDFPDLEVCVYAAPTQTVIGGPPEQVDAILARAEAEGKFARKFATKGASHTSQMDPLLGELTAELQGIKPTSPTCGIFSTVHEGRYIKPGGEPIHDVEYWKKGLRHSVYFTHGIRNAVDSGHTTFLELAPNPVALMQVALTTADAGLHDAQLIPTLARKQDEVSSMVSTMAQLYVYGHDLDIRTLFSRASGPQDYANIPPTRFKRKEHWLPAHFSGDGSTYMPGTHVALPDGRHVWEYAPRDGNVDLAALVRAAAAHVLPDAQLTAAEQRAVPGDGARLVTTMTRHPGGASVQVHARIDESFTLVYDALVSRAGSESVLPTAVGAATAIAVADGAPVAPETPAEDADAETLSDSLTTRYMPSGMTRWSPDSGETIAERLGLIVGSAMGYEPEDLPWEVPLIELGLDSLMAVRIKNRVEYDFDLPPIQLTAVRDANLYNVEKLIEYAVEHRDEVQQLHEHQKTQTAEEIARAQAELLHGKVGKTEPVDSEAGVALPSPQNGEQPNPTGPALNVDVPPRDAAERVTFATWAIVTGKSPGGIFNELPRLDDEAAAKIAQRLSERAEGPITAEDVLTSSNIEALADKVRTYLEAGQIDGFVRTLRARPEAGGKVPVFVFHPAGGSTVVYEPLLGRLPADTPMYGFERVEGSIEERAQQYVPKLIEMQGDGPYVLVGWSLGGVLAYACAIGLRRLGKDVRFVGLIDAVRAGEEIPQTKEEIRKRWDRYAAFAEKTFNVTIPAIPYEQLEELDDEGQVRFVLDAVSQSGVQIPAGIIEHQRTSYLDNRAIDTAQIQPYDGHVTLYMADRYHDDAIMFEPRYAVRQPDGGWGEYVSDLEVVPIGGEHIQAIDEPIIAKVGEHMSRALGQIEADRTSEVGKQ
UniProt Q4DA54, 1-478: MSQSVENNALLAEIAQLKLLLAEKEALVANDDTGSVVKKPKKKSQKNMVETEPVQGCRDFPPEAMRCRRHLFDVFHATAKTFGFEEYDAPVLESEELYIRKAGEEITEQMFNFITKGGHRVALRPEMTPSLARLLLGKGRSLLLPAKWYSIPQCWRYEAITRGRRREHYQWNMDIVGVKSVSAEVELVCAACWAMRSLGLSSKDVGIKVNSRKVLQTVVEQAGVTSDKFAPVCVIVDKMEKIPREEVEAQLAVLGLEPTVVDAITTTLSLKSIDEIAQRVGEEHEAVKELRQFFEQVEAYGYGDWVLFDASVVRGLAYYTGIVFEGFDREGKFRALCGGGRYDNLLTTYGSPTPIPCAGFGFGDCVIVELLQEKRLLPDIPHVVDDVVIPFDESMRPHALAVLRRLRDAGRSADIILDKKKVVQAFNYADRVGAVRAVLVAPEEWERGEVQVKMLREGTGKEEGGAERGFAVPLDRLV
UniProt P9WFT3, whole entry: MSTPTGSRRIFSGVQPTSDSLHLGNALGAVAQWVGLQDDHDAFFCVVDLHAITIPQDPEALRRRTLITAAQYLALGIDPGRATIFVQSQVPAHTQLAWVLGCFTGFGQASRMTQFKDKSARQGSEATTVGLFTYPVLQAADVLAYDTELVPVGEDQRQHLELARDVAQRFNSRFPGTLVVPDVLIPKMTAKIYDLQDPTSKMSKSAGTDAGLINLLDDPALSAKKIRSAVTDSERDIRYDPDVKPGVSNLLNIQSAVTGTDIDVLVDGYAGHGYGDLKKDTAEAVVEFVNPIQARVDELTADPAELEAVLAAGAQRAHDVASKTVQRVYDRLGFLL
UniProt P9WPC5, whole entry: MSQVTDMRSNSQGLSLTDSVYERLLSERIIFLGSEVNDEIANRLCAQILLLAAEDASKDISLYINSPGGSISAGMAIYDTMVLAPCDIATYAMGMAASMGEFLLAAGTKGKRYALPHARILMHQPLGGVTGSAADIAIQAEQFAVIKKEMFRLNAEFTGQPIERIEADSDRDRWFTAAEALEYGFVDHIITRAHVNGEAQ
UniProt P9WPC3, whole entry partner: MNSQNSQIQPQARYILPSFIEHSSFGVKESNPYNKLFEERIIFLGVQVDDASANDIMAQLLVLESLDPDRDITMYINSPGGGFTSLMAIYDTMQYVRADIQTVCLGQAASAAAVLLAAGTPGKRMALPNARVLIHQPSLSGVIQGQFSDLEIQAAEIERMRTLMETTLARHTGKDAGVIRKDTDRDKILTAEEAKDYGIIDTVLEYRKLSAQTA

Pks13 thioesterase: 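Enzyme assay of the thioesterase domain of polyketide synthase 13; the read-out is not stated. Target: Polyketide synthase Pks13, Mycobacterium tuberculosis (UniProt I6X8D2). Tested at 30 µM. The record gives no direction; the compounds picked for IC50 retests had high values, so higher reads as stronger inhibition. Of about 67,000 compounds tested this way, about 300 (0.46%) reached 50% or more in at least one test.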
TcHisRS: 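Histidine-tRNA ligase, Trypanosoma cruzi CL Brener (UniProt Q4DA54). Enzyme assay of histidyl-tRNA synthetase; the read-out is not stated. Tested at 30 µM. Direction is inferred from retests: higher values go with stronger inhibition. About 69,000 compounds were tested under these conditions; 0.045% (about 31) showed 50% or more at least once.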
MtTrpRS: 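Tryptophan-tRNA ligase, Mycobacterium tuberculosis (UniProt P9WFT3). Enzyme assay of tryptophanyl-tRNA synthetase; the read-out is not stated. Concentration: 10 µM. Direction is not recorded; retested compounds ran higher, which suggests that high means inhibition. Of about 65,000 compounds tested this way, about 64 (0.098%) reached 50% or more in at least one test.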
ClpP1P2: 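Protease assay of ClpP1P2, read by the AMC dye that it sets free. Target: ClpP1P2, Mycobacterium tuberculosis (UniProt P9WPC5 and UniProt P9WPC3). Concentration: 50 µM. Direction is inferred from only a few compounds that gave an IC50; most scored high, so higher reads as stronger inhibition. Most other retested compounds had strongly negative values. Size under these conditions: about 69,000 compounds, about 10 of them at 50% or above in at least one test.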

The filed quantity is “Percent Effect” (%).
How 0% and 100% were set is not recorded. Most values in the screen are low, and negative values occur.
This is an unselected part of the compounds tested.

structure: Cc1ncc(-c2ccnc(SCCN(C)C)n2)c(-c2ccco2)n1
Pks13 thioesterase: -24.34
TcHisRS: 1.13
ClpP1P2: 5.294

structure: CNC(=O)C1CCCCN1C(=O)c1csc(-c2ccc(C)o2)n1 (stereo not shown)
Pks13 thioesterase: 9.338
TcHisRS: 11.76
MtTrpRS: -0.09709
ClpP1P2: 7.69

structure: COc1ccc(N2CCC(N3C[C@H](NC(C)=O)[C@@H](C(C)C)C3)CC2)cc1
Pks13 thioesterase: -17.29
TcHisRS: -3.911
MtTrpRS: -9.459
ClpP1P2: -4.07

structure: Cc1cccc(-c2noc([C@@H]3Cc4nc[nH]c4CN3)n2)c1
TcHisRS: 8.911
MtTrpRS: -6.25
ClpP1P2: -6.255

structure: CC(c1ccc(Cl)cc1)N1CCN(CCS(C)(=O)=O)CC1 (stereo not shown)
Pks13 thioesterase: -7.54
TcHisRS: 0.8333
MtTrpRS: 0.6966
ClpP1P2: -8.035

structure: COc1ncc(C)cc1NC(=O)CCc1ccccn1
Pks13 thioesterase: -19.65
TcHisRS: 13.13
MtTrpRS: 6.373
ClpP1P2: 4.451

structure: CN1CCN(C[C@@H]2CN(C(=O)NCC3CCCCC3)C[C@@H]2CO)CC1
Pks13 thioesterase: -20.22
TcHisRS: -1.345
MtTrpRS: -1.227
ClpP1P2: -19.78

structure: COCCn1c2c(ccc1=O)CC(NCc1cccnc1OC)CC2 (stereo not shown)
Pks13 thioesterase: -11.41
TcHisRS: -20.6
ClpP1P2: 6.316

structure: OC1CCN(c2cnnc3ccccc23)CC1
Pks13 thioesterase: -13.77
TcHisRS: -1.327
MtTrpRS: -1.248
ClpP1P2: 0.1286

structure: O=C(c1ccc(Br)s1)N1CCN(Cc2ccc(OC(F)(F)F)cc2)CC1
Pks13 thioesterase: -6.553
TcHisRS: 7.438
MtTrpRS: -3.92
ClpP1P2: 4.474

structure: O=C1CC2(CCN(S(=O)(=O)c3cccs3)C2)CN1c1cccc(F)c1 (stereo not shown)
Pks13 thioesterase: -10.01
TcHisRS: 0
MtTrpRS: -0.4361
ClpP1P2: -0.4174

structure: CCN(CCNS(=O)(=O)N1CCOCC1)C(=O)OC(C)(C)C
Pks13 thioesterase: -18.71
TcHisRS: 5.357
MtTrpRS: -1.224
ClpP1P2: -11.41

structure: Cc1nc(C2CCCN2C(=O)Cn2cncn2)no1 (stereo not shown)
Pks13 thioesterase: -26.06
TcHisRS: 1.714
MtTrpRS: -8.122
ClpP1P2: 5.726

structure: CC(C)CN(Cc1nc2c(cnn2C)c(=O)[nH]1)CC(C)C
Pks13 thioesterase: -21.58
TcHisRS: 6.158
MtTrpRS: -4.545
ClpP1P2: -11.58

structure: O=C(NCCc1nncn1C1CC1)C1SCCc2sccc21 (stereo not shown)
Pks13 thioesterase: -36.34
TcHisRS: 5.882
MtTrpRS: 0.09709
ClpP1P2: 1.29

structure: O=c1[nH]c(NCc2cccc(OC(F)F)c2)nc2c1CCNC2
Pks13 thioesterase: -8.06
TcHisRS: 12.14
MtTrpRS: 11.74
ClpP1P2: -3.361

structure: O=S(=O)(C1CC1)N1CCO[C@H]2[C@H](Oc3cccnc3)CC[C@@H]21
Pks13 thioesterase: -16.78
TcHisRS: 4.386
MtTrpRS: -2.703
ClpP1P2: -11.33

structure: O=C(NCc1ccc(OCC2CC2)nc1)Nc1c(F)cccc1F
Pks13 thioesterase: 3.78
TcHisRS: 5
MtTrpRS: -4.287
ClpP1P2: -3.612

structure: O=C(Nc1cc(F)ccc1OCC1CCCO1)N1CCCC1 (stereo not shown)
Pks13 thioesterase: 20.62
TcHisRS: -3.817
MtTrpRS: 0.7194
ClpP1P2: 4.613

structure: NC(=O)C1CCN(C(=O)CCCc2nnc(-c3ccccc3)o2)CC1
Pks13 thioesterase: -9.965
TcHisRS: 2.882
MtTrpRS: -3.374
ClpP1P2: -22.43

structure: Cc1ccc(-c2cc(-c3c(C)nn(CCO)c3C)c(C#N)c(N)n2)cc1
Pks13 thioesterase: -11.27
TcHisRS: 1.293
MtTrpRS: 2.449
ClpP1P2: -158.3

structure: CCCc1nc(CN(CC)C(=O)c2ccc3[nH]cnc3c2)no1
Pks13 thioesterase: -19.67
TcHisRS: 7.143
MtTrpRS: -3.122
ClpP1P2: -7.753

structure: N#Cc1ccc(SCCCO)c(F)c1
Pks13 thioesterase: 0.9322
TcHisRS: 8.621
MtTrpRS: 4.046
ClpP1P2: 3.388

The values are deposited in ChEMBL (CHEMBL3988442, “University of Dundee, Small-Polar-MMV Screening Library” (2021)).